# Assay results as given in patent US20210022338A1, “ALKYNE COMPOUND AND ARTHROPOD PEST CONTROL COMPOSITION CONTAINING SAME” (SUMITOMO CHEMICAL COMPANY, LIMITED, priority 2018, published 2021).
# Some entries share one result that the patent states for a list of compounds. At least one structure is not confirmed: it was looked up by name or label, or the drawing left a doubt.
# What was measured:
# [1] = tested on: cotton aphids (Aphis gossypii); experiment: Test Example 1 / Test method 1: spray on cucumber seedling infested with cotton aphids; type: in vivo; conditions: 500 ppm, sprayed 10 mL/seedling on cucumber, all stages of life, after 5 days, 25° C.
# [2] = tested on: common red spider mite (Tetranychus urticae); experiment: Test Example 7 / Test method 7: spray on kidney bean seedling with common red spider mite; type: in vivo; conditions: 500 ppm, kidney bean sprayed 10 mL/seedling, adult female mites, after 7 days
Compound,controlling value [1] [%],controlling value [2] [%]
CO/C=C(/C(=O)OC)c1ccc(OC)cc1C#CC1CCCC1 [compound 28],≥ 90,≥ 90
CO/C=C(/C(=O)OC)c1ccc(Cl)cc1C#CCC(C)C [compound 4],≥ 90,
CCCCC#Cc1cc(Cl)ccc1/C(=C\OC)C(=O)OC [compound 7],≥ 90,≥ 90
CO/C=C(/C(=O)OC)c1ccc(Cl)cc1C#CC(C)C [compound 22],≥ 90,≥ 90
CO/C=C(/C(=O)OC)c1ccc(C)cc1C#CCC(C)C [compound 5],≥ 90,≥ 90
CCCCC#Cc1cc(C)ccc1/C(=C\OC)C(=O)OC [compound 9],≥ 90,≥ 90
C#Cc1cc(C)ccc1C(=COC)C(=O)OC [compound 31],≥ 90,≥ 90
CCCC#Cc1cc(C)ccc1C(=COC)C(=O)OC [compound 11],≥ 90,≥ 90
CCc1ccc(/C(=C\OC)C(=O)OC)c(C#CCC(C)C)c1 [compound 12],≥ 90,
CCOCC#Cc1cc(Cl)ccc1/C(=C\OC)C(=O)OC [compound 29],≥ 90,≥ 90
CCCC#Cc1cc(F)ccc1/C(=C\OC)C(=O)OC [compound 2],≥ 90,≥ 90
COC=C(C(=O)OC)c1ccc(C2CC2)cc1C#CCC(C)C [compound 34],≥ 90,
CO/C=C(/C(=O)OC)c1ccc(Cl)cc1C#CCC1CCCC1 [compound 27],≥ 90,≥ 90
CCC(C)C#Cc1cc(Cl)ccc1/C(=C\OC)C(=O)OC (centres unmarked) [compound 23],≥ 90,≥ 90
CCCCC=CC#Cc1cc(C)ccc1C(=COC)C(=O)OC [compound 35],≥ 90,≥ 90
CCCC#Cc1cc(C)c(C)cc1C(=COC)C(=O)OC [compound 33],≥ 90,≥ 90

Compound,controlling value [1] [%],controlling value [2] [%]
CO/C=C(/C(=O)OC)c1ccc(OC)cc1C#CCC(C)C [compound 3],≥ 90,
CO/C=C(/C(=O)OC)c1ccc(F)cc1C#CCC(C)C [compound 6],≥ 90,≥ 90
CO/C=C(/C(=O)OC)c1ccc(C(F)(F)F)cc1C#CCC(C)C [compound 10],≥ 90,≥ 90
CO/C=C(/C(=O)OC)c1ccc(Br)cc1C#CCC(C)C [compound 20],≥ 90,≥ 90
CO/C=C(/C(=O)OC)c1ccc(OC)cc1C#CCCC(C)C [compound 25],≥ 90,≥ 90
C#Cc1ccc(C(=COC)C(=O)OC)c(C#CCC(C)C)c1 [compound 17],≥ 90,≥ 90
CCCC#Cc1cc(OC)ccc1/C(=C\OC)C(=O)OC [compound 1],≥ 90,≥ 90
CO/C=C(/C(=O)OC)c1ccc(Cl)cc1C#CC1CC1 [compound 8],≥ 90,≥ 90
CCCc1ccc(/C(=C\OC)C(=O)OC)c(C#CCC(C)C)c1 [compound 13],≥ 90,
CCCC#Cc1cc(Cl)ccc1/C(=C\OC)C(=O)OC [compound 21],≥ 90,≥ 90
C#Cc1ccc(/C(=C\OC)C(=O)OC)c(C#CC2CC2)c1 [compound 19],≥ 90,
CO/C=C(/C(=O)OC)c1ccc(Cl)cc1C#CCCCCl [compound 30],≥ 90,≥ 90
C#Cc1ccc(/C(=C\OC)C(=O)OC)c(C#CCCCC)c1 [compound 18],≥ 90,≥ 90
CCCCCCC#Cc1cc(Cl)ccc1/C(=C\OC)C(=O)OC [compound 26],≥ 90,≥ 90
CCCCCC#Cc1cc(Cl)ccc1/C(=C\OC)C(=O)OC [compound 24],≥ 90,≥ 90
